# Some of the results follow.
# B1: il2ra_site1_1z92_sap_16_mot_HHH_b2_05238_af2_000000252_0001_38_55_H_._HHH_b1_06981_af2_0001_0000200017_0000001_0_0001_af2pred_0001_af2pred_swapped (protein)
# chain: SSSSSDEEEREAEKVVRKVVEKFGLDEEEEELLERLAEKLLKLGTSPEAIRHALEKLLELSSSSS
# B2: il2ra_site1_2b5i_normal_mot_HHH_b1_07881_af2_000000049_0001_1_19_H_._HHH_b1_05336_af2_0001_0000400019_0000001_0_af2pred_dldesign_0_af2pred (protein)
# chain: SSSSSLEDEVYRLYNKALELYKAGKREEAKEVLEKALELAKKAGDSVAVAELEYLLERLKSSSSS
# B3: il2ra_site2_2erj_sap_26_mot_HHH_b2_07015_000000077_0001_40_57_H_._HHH_b1_02157_0002_0000200034_0000001_0_0001_af2pred_0001_af2pred (protein)
# chain: SSSSSDEQEEAERAADRVIELFEEGNPEEAERLLEELEKELEEAGNEHLLKFVRQVLSYLSSSSS
# B4: il2ra_site1_2b5i_sap_21_mot_HHH_b2_08159_000000245_0001_1_21_H_._8ad9ac091cb40d3f9ee7ab2e9a3a3379_0001_0001_0000400039_0000001_0_0001_af2pred_0001_af2pred_1 (protein)
# chain: SSSSSELLEEAFELLEEADELAKKGNDEEAEKVLREAEELLEKAGNPSLLRLVRAALRLTSSSSS
# B5: il2ra_site1_3nfp_sap_17_mot_HHH_b1_05128_000000175_0001_22_38_H_._HHH_b2_04730_af2_0001_0000200009_0000001_0_0001 (protein)
# chain: DKVAKLLIEEAIKQNNELILKRFLEQAERLLGNPEEAKEFLRRAIEELLGDPEEAKEIVREIEER
# B6: il2ra_site1_2b5i_sap_16_mot_e4f16f412d24973e63efe4e4a8bb3ce7_0001_1_af2_000000119_0001_1_13_H_._HHH_b1_05763_af2_0001_0000100008_0000001_0_0001 (protein)
# chain: SSSSDEEDEEVDRLFHEASRAWREGNPEEAEELLERALELARKIGDPSAAEDIRRFLELVRSSSS
# B7: il2ra_site1_1z92_sap_13_mot_7b521abccb2855357a08c3dc921ef1fd_0001_000000147_0001_1_13_H_._HEEHE_3016_0001_0000100013_0000001_0_0001_af2pred_0001_af2pred_1 (protein)
# chain: DEAEELAEEARELAERGDPEEALEVLKELLKLLGDPALKFLIEVLERKLKHDEEAAAKLIKKMVR
# B8: il2ra_site2_2erj_sap_27_mot_HHH_b1_07741_000000192_0001_1_20_H_._HHH_b1_02897_0001_0000500025_0000001_0_0001 (protein)
# chain: SSSSNEDLRELYELMVKILELIQRGDPEEAEKLLERAEELAERLQSESVKEMLEWLRREVNSSSS
# B9: il2ra_site1_1z92_sap_5_mot_108be8bf5286040dcbfed5edda487183_0001_000000086_0001_19_33_H_._HHH_b1_01259_af2_0002_0000400030_0000001_0_0001 (protein)
# chain: NLERDAEQVLKFAPSPEALRHVLERLLKASGDPEDRKEFIEIVEEIARELGNEELERAAREALEK
# B10: il2ra_site2_2erj_sap_13_mot_HHH_b1_07806_000000211_0001_42_56_H_._HHH_b1_08154_af2_0001_0000100006_0000001_0_0001 (protein)
# chain: SSSSSDLRELYELANELMHAIARGDEELFEKLVEEIRELAEELDSETAKKILRELEKLARSSSSS
# B11: il2ra_site1_3nfp_normal_mot_HHH_b2_08182_af2_000000158_0001_1_17_H_._HHH_b1_00105_af2_0001_0000400016_0000001_0 (protein)
# chain: SSSDREEVRRLLERALRLLFEGNEEEVKELVERLRELVEEIGDPSLKRYLEDIEKALEQLGSSSS
# B12: il2ra_site2_2erj_sap_17_mot_720936397f2d31669eff21710c18a4fc_0001_000000071_0001_37_51_H_._HHH_b1_05245_af2_0001_0001300031_0000001_0_0001 (protein)
# chain: SSSSSDIEQRVQELLEEAVRVQDEERFKKLLEEAEELAEELGDEELKAMIEVLEEYAERLSSSSS
# B13: il2ra_site1_1z92_sap_15_mot_HHH_b1_03003_000000182_0001_43_57_H_._HHH_b2_04055_0003_0000200006_0000001_0_0001_af2pred_0001_af2pred (protein)
# chain: SSSSEERLEKAAKIVVRIARRINGLSEEQKEKLEELAKELLERGLDREEISRKLDELALRLSSSS
# B14: il2ra_site2_2erj_sap_25_mot_HHH_b2_04462_000000161_0001_43_56_H_._HHH_b1_00464_af2_0001_0000100003_0000001_0_0001 (protein)
# chain: SSSSSEEVEELIEEARELIEEGDPEKALEVLREAFHRAYELNDLELFSRLAELTHEIARALSSSS
# B15: il2ra_site1_2b5i_normal_mot_HHH_b2_08221_000000034_0001_1_18_H_._HHH_b1_05421_af2_0001_0000100001_0000001_0_af2pred_dldesign_0_af2pred (protein)
# chain: SSSSSKVRALLERIEELAKRYEETGDPSLIEEIKKLVEELKKLGCNAAVKFAELAIKQLLESSSS
# B16: il2ra_site1_1z92_normal_mot_b1fbee8209167eaadba3689d49187f1a_0001_1_af2_000000018_0001_16_31_H_._9e622f7d73aa0ff91040b48e8c7f7504_0001_1_0001_0000100009_0000001 … (protein)
# chain: DEEEAEELLREILKENGSKEALERDLEQAERALGDPKLALKALIRIALQIYGDPRLEEAEQLVRK
# B17: il2ra_site2_3nfp_normal_mot_HHH_b2_07840_000000026_0001_18_34_H_._HHH_b2_04827_0001_0000100003_0000001_0 (protein)
# chain: SSSSDEEVERLLEEAERALEEGDREEARQILARAALLAFELRDHELFALVQDVMELIIRRSSSSS
# B18: il2ra_site2_3nfp_normal_mot_HHH_b1_05785_af2_000000002_0001_41_57_H_._HHH_b1_03527_af2_0001_0000800015_0000001_0 (protein)
# chain: SSSSDEAEEYVKAALALLEEALEQGDEELFEKLARLIELAIEDLGNPELEERLEELKERGSSSSS
# B19: il2ra_site1_2b5i_sap_14_mot_HHH_b2_03242_af2_000000120_0001_1_19_H_._ems_p1-14H-GBL-16H-GABBL-15H_0264_0001_0001_0001_0001_0000200016_0000001_1_0001 (protein)
# chain: DLMKRVVRAVLKIIWRAGVPRITVRNNDGEVRVTIHGDDEAARAAEELIREVAEELNANVEVTVE
# Biological target: il2ra, P01589
# Assay: yeast display titration
row,Binder,apparent Kd
1,B1,inactive: no binding seen
2,B2,inactive: no binding seen
3,B3,inactive: no binding seen
4,B4,inactive: no binding seen
5,B5,inactive: no binding seen
6,B6,inactive: no binding seen
7,B7,inactive: no binding seen
8,B8,inactive: no binding seen
9,B9,inactive: no binding seen
10,B10,inactive: no binding seen
11,B11,inactive: no binding seen
12,B12,inactive: no binding seen
13,B13,inactive: no binding seen
14,B14,inactive: no binding seen
15,B15,inactive: no binding seen
16,B16,inactive: no binding seen
17,B17,inactive: no binding seen
18,B18,inactive: no binding seen
19,B19,inactive: no binding seen

# Single entries from above:
# B14 – apparent Kd: inactive: no binding seen
# B12 – apparent Kd: inactive: no binding seen
